{"source": "PubChem BioAssay AID504744 (Drosophila RNAi Screening Center, 2011)", "screen": "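Identify dsRNAs that increase or decrease phospho-dAkt after insulin treatment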 (primary screen)", "cell system": "Drosophila Kc167 cells", "reagents": "long dsRNA against Drosophila genes, 250 ng dsRNA per well of a 384-well plate", "timing": "3 days of knock-down, then overnight serum-free starvation before stimulation", "conditions": "bovine insulin at 387 nM for 10 minutes after 12 h without serum", "detection": "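In-cell antibody fluorescence for phospho-dAkt in each well over DNA-dye signal, with log2 residuals expressed as z-scores adjusted for cell count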", "call rule": "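Hit in the insulin screen when the two-replicate mean z-score is more extreme than plus or minus 2.5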", "note": "The screen tested about 23,000 reagents; this is an unselected part of those with a known target gene and a result. Over the whole deposit, 98 (0.43%) were called active. 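Only hit calls are given; the phospho-dAkt signals, z-scores and hit direction were not deposited.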 Names joined by + are all predicted targets of the reagent. Reagent sequences are not shown."}
{"target gene": "GlyRS", "amplicon": "DRSC10711", "call": "inactive"}
{"target gene": "mRNA-cap", "amplicon": "DRSC19789", "call": "inactive"}
{"target gene": "CG10737", "amplicon": "DRSC05999", "call": "inactive"}
{"target gene": "mlt", "amplicon": "DRSC06120", "call": "inactive"}
{"target gene": "pan", "amplicon": "DRSC17176", "call": "inactive"}
{"target gene": "pan", "amplicon": "DRSC22582", "call": "inactive"}
{"target gene": "CG32192", "amplicon": "DRSC21760", "call": "inactive"}
{"target gene": "mthl6", "amplicon": "DRSC10234", "call": "inactive"}
{"target gene": "CG33702", "amplicon": "DRSC08986", "call": "inactive"}
{"target gene": "CG31029", "amplicon": "DRSC15422", "call": "inactive"}
{"target gene": "CG1571", "amplicon": "DRSC18068", "call": "inactive"}
{"target gene": "x16", "amplicon": "DRSC00960", "call": "inactive"}
{"target gene": "x16", "amplicon": "DRSC03638", "call": "inactive"}
{"target gene": "CG31636", "amplicon": "DRSC02276", "call": "inactive"}
{"target gene": "Mekk1", "amplicon": "DRSC16302", "call": "inactive"}
{"target gene": "Mekk1", "amplicon": "DRSC16303", "call": "inactive"}
{"target gene": "CG15742", "amplicon": "DRSC19708", "call": "inactive"}
{"target gene": "Ssb-c31a", "amplicon": "DRSC03443", "call": "inactive"}
{"target gene": "CG31516", "amplicon": "DRSC11994", "call": "inactive"}
{"target gene": "kn", "amplicon": "DRSC05505", "call": "inactive"}
{"target gene": "kn", "amplicon": "DRSC05507", "call": "inactive"}
{"target gene": "kn", "amplicon": "DRSC06196", "call": "inactive"}
{"target gene": "kn", "amplicon": "DRSC07637", "call": "inactive"}
{"target gene": "kn", "amplicon": "DRSC21533", "call": "inactive"}
{"target gene": "CG4622", "amplicon": "DRSC04479", "call": "inactive"}

6 of these entries, reformatted:
target gene,amplicon,call
Ssb-c31a,DRSC03443,inactive
CG31516,DRSC11994,inactive
kn,DRSC05505,inactive
kn,DRSC05507,inactive
kn,DRSC06196,inactive
kn,DRSC07637,inactive

More entries:
{"target gene": "hng1", "amplicon": "DRSC04555", "call": "inactive"}
{"target gene": "CREG", "amplicon": "DRSC16595", "call": "inactive"}
{"target gene": "POLDIP2", "amplicon": "DRSC12194", "call": "inactive"}
{"target gene": "chif", "amplicon": "DRSC03508", "call": "inactive"}
{"target gene": "NPFR", "amplicon": "DRSC12173", "call": "inactive"}
{"target gene": "CG13056", "amplicon": "DRSC09937", "call": "inactive"}
{"target gene": "GlcAT-P", "amplicon": "DRSC10603", "call": "inactive"}
{"target gene": "GlcAT-P", "amplicon": "DRSC10604", "call": "inactive"}
{"target gene": "tud", "amplicon": "DRSC04719", "call": "inactive"}
{"target gene": "Rab30", "amplicon": "DRSC03137", "call": "inactive"}
{"target gene": "Ent3", "amplicon": "DRSC09822", "call": "inactive"}
{"target gene": "Pex6 + Hao", "amplicon": "DRSC06097", "call": "inactive"}
{"target gene": "Pex6 + Hao", "amplicon": "DRSC06704", "call": "inactive"}
{"target gene": "Cyp304a1", "amplicon": "DRSC16623", "call": "inactive"}
